# Data: paper PMC8773746
# Substitutions are numbered along the chain they refer to. Numbers in names are those of the source. Results are given in words; binding and its absence hold for the method and conditions named. Some results given as binding are weak or reduced against the parent protein; the word gives no strength.
# B1: Y88R mutant of the protein S100P (protein, UniProt P25815 1-94)
# chain: MTELETAMGMIIDVFSRYSGSEGSTQTLTKGELKVLMEKELPGFLQSGKDKDAVDKLLKDLDANGDAQVDFSEFIVFVAAITSACHKRFEKAGL
# B2: Human S100P protein (wild-type) (protein, UniProt P25815 1-94)
# chain: B1 chain with R88Y
# Experiments:
# [1] = biological target: Y88R mutant of the protein S100P (human) (UniProt P25815); assay: cross-linking; 0.7 mg/mL protein with 0.02% glutaric aldehyde, 20 °C, 16 h, then SDS-PAGE with Coomassie staining; pH 7.4, 10 mM tricine-KOH, 1 mM EDTA/CaCl2; data not shown; both purified
# [2] = biological target: Human S100P protein (wild-type) (human) (UniProt P25815); assay: as above
Binder,binding [1],binding [2]
B1,binds,
B2,,binds
